From paper PMC8372318, “Automated affinity selection for rapid discovery of peptide binders” (Chemical Science, 2021)

Tested on: anti-hemagglutinin (HA) monoclonal antibody 12ca5
Assay: BLI-assisted capture and release of single control peptide, nLC-MS/MS read-out
Type: binding

YPYDVPDYAK [HA tag]
detection threshold of the indirect capture approach: 1.0 nM | ion enrichment, direct capture: enriched; also recorded: no detectable ion enrichment

“Also recorded” adds a separate entry of the source.
